Measurements from the supplement of paper PMC12823440, “Inhibitors supercharge kinase turnover through native proteolytic circuits” (Nature, 2025).
Counter-ions that a name gives are not always drawn. This is one part of the list. The calls rarely recur for the same compound in another form.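 Kinases were expressed as nanoluciferase fusions in K562 cells and luminescence was read every 4 h between 2 and 18 h as percent of control, DMSO set to 100% and a positive control to 0%. A time point counts as decreased when the signal drops significantly (2 sigma). The hit call is the authors' own, does not follow from the count of time points alone, and its rule is not shown.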

Chains of the proteins cited; added tags and fusions are not shown. Lines headed by an entry give the natural chain unless they say otherwise; changes in a name come on top.
UniProt P07949, whole entry, looked up: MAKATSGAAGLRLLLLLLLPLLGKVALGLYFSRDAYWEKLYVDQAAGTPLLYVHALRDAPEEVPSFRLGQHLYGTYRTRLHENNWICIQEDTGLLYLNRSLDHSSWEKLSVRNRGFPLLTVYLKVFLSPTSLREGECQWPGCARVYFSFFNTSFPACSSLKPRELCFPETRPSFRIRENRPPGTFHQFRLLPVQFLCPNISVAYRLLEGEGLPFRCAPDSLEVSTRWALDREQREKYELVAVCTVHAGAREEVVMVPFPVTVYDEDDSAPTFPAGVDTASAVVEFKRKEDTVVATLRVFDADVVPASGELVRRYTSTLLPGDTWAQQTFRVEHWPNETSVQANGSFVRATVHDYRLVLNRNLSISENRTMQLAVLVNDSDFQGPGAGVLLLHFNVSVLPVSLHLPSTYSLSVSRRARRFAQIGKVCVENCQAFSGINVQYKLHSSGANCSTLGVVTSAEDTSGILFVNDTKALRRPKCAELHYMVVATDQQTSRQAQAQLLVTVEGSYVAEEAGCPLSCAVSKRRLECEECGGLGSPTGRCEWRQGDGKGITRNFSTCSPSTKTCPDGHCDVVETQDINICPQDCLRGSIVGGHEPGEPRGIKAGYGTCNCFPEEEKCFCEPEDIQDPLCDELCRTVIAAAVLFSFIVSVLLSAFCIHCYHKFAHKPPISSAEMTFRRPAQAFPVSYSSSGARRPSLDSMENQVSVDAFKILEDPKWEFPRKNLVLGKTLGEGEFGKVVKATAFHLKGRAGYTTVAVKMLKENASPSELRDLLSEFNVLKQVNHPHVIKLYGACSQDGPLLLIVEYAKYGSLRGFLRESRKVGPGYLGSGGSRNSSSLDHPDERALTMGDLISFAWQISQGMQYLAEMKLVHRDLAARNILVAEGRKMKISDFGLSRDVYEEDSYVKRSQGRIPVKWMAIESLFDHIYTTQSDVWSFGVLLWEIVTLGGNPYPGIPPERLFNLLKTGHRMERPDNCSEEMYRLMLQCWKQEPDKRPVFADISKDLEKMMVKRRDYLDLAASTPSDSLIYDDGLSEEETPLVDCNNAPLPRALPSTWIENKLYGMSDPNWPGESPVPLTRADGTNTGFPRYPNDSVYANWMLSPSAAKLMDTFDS
UniProt P07949, whole entry M918T, looked up: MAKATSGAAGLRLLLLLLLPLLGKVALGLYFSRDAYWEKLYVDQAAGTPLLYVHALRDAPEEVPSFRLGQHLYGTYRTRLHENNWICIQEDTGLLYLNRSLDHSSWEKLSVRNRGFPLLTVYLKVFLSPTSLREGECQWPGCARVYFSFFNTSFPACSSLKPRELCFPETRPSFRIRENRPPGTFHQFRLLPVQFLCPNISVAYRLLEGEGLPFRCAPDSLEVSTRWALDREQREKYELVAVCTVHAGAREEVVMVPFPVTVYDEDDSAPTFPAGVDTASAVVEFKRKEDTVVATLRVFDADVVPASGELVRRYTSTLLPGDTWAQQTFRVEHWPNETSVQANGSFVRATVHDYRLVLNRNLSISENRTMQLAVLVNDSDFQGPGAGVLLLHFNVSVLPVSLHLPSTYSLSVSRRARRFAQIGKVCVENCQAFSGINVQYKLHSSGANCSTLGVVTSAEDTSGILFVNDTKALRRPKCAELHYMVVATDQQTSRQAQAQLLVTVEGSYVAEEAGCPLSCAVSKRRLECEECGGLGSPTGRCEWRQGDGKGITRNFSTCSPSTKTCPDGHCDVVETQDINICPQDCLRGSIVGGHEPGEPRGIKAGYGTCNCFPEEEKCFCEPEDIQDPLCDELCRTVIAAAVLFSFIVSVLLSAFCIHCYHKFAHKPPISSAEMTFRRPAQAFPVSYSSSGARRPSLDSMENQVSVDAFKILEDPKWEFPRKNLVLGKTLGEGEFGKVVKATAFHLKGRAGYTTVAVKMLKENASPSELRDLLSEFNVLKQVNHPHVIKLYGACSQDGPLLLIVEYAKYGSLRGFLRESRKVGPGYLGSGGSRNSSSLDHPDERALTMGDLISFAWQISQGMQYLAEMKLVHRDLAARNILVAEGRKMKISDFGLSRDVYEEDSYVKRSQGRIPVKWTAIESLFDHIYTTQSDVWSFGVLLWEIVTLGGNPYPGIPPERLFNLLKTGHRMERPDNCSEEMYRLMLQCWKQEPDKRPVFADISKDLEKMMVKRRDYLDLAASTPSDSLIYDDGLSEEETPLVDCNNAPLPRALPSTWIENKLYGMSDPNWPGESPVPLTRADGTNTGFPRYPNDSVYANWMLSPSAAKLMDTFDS
UniProt Q9BRS2: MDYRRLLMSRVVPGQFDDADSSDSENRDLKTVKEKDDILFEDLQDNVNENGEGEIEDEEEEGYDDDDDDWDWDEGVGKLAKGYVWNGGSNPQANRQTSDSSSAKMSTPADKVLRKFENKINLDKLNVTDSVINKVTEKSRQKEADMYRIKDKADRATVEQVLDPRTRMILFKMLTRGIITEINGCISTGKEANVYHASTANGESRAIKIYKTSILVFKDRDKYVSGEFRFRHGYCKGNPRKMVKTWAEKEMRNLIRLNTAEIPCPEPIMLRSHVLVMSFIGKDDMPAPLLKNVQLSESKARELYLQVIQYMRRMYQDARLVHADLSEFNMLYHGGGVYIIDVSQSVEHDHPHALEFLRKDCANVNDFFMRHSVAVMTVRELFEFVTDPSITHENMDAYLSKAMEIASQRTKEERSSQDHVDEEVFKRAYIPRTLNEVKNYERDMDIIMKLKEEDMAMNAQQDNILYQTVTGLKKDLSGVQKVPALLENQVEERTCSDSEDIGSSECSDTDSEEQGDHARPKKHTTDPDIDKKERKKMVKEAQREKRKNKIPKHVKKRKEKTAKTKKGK
UniProt Q13546: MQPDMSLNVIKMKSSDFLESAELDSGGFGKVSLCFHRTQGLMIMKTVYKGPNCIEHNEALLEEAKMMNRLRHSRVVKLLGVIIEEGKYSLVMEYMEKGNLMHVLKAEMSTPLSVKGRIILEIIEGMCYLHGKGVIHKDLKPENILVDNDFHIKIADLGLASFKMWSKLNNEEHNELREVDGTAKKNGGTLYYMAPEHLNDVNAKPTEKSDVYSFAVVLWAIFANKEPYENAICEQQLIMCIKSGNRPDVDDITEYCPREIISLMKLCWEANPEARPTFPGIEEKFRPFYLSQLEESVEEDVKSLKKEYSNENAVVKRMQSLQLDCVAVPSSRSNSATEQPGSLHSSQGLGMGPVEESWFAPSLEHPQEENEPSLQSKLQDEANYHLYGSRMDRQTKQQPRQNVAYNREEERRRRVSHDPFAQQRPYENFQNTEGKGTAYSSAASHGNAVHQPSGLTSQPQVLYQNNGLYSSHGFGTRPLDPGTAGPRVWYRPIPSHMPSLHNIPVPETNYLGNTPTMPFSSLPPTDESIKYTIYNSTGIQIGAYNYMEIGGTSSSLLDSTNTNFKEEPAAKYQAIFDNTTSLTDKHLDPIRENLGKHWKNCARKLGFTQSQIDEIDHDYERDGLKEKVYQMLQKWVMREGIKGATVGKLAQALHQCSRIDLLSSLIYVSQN
UniProt Q01974, whole entry: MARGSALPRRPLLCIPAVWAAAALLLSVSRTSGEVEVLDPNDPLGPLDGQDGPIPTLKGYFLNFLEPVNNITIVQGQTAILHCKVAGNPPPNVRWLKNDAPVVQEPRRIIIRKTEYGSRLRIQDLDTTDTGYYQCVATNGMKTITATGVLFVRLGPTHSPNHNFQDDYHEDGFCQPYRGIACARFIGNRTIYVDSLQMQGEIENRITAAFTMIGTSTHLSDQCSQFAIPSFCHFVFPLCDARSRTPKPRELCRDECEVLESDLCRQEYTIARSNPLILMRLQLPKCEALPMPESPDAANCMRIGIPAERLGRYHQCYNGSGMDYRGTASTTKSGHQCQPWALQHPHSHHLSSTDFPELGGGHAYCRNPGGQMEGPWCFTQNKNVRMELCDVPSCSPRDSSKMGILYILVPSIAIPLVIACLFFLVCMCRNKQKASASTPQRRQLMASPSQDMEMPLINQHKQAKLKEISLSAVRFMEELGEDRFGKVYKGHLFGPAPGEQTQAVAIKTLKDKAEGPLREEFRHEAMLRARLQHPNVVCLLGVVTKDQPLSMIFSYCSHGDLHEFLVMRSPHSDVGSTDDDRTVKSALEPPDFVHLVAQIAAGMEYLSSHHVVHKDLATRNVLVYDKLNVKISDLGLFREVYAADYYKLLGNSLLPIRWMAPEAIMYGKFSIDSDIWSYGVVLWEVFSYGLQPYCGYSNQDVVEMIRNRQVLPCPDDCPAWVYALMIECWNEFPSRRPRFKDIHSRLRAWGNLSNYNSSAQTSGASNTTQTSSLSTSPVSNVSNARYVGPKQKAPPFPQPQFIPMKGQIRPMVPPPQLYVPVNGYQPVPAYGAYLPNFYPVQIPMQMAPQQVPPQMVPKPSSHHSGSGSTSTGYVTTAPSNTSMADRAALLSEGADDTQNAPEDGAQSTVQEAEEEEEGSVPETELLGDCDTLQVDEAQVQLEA
UniProt Q15418, whole entry: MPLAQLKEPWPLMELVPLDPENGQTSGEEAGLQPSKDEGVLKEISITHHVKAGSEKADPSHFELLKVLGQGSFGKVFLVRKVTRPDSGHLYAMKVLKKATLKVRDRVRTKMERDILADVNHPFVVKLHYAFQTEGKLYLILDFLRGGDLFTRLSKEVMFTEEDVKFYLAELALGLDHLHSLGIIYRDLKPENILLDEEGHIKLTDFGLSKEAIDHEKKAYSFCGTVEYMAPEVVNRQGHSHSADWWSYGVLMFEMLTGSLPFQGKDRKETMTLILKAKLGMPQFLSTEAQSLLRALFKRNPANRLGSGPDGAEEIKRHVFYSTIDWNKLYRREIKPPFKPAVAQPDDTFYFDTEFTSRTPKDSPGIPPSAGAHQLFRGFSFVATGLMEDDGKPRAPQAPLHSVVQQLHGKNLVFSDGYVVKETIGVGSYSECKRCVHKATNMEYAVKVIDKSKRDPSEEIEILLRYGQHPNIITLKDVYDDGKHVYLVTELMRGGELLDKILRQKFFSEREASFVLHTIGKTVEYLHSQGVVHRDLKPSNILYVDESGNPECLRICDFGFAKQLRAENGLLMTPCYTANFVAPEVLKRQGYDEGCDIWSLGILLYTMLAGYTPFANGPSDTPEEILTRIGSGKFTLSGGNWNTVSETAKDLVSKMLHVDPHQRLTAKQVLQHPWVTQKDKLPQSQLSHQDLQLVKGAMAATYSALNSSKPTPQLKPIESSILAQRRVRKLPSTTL
UniProt Q9NYA1, whole entry: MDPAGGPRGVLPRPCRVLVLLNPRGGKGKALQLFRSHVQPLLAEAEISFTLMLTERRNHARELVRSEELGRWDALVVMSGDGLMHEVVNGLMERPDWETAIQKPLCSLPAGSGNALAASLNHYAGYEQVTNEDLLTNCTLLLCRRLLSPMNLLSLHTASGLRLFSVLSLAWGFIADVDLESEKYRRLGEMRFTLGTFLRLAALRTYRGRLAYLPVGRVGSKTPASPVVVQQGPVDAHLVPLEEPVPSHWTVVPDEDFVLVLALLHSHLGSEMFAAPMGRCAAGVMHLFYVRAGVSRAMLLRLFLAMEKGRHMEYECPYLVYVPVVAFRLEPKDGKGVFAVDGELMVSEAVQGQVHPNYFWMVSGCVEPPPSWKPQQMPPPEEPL
UniProt Q9Y6E0: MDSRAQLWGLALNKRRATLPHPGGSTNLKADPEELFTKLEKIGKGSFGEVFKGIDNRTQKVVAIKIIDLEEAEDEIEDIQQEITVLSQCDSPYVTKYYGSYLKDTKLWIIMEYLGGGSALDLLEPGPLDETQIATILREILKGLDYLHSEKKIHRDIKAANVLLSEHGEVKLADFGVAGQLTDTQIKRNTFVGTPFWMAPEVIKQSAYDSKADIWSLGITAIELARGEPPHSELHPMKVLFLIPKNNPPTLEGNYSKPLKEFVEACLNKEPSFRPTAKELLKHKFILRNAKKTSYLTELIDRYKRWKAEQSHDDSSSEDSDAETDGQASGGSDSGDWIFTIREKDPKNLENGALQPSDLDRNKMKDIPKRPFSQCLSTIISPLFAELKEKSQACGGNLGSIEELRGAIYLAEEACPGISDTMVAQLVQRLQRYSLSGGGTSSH

Tests used:
Experiment in all cases: kinase-Nluc reporter destabilization hit call (1 = scored as downregulated) (binary); higher = compound decreases kinase abundance
Details in all cases: K562; 2-18 h
[1] = molecular target: RET (UniProt P07949)
[2] = molecular target: RET_M918T (clone: RET_mut) (UniProt P07949)
[3] = molecular target: RIOK1 (UniProt Q9BRS2)
[4] = molecular target: RIPK1 (UniProt Q13546)
[5] = molecular target: RIPK2 (UniProt O43353)
[6] = molecular target: ROR2 (UniProt Q01974)
[7] = molecular target: RPS6KA1 (UniProt Q15418)
[8] = molecular target: SPHK1 (UniProt Q9NYA1)
[9] = molecular target: SRC (UniProt P12931)
[10] = molecular target: STK24 (UniProt Q9Y6E0)

Measured: kinase-Nluc reporter destabilization hit call

COCCOc1ccc2c(c1)ncn2-c1ccc2cccc(N3CCC(N)CC3)c2n1 (10 µM)
inactive: [1] 0 | [2] 0 | [3] 0 | [4] 0 | [5] 0 | [6] 0 | [7] 0 | [8] 0 | [9] 0 | [10] 0

COCCOCCc1c(C)c2cc(OC)c(O)c(C=O)c2oc1=O (10 µM)
inactive: [1] 0 | [2] 0 | [3] 0 | [4] 0 | [5] 0 | [6] 0 | [7] 0 | [8] 0 | [9] 0 | [10] 0

Nc1nc(NCCNc2ncc(-n3ccnc3)c(-c3ccc(Cl)cc3Cl)n2)ccc1[N+](=O)[O-] (2.5 µM)
inactive: [1] 0 | [2] 0 | [3] 0 | [4] 0 | [5] 0 | [6] 0 | [7] 0 | [8] 0 | [9] 0 | [10] 0

C=CC(=O)Nc1cc(Nc2nccc(-c3cn(C)c4ccccc34)n2)c(OC)cc1N(C)CCNC [AZ7550 Mesylate] (2.5 µM)
inactive: [1] 0 | [2] 0 | [3] 0 | [4] 0 | [5] 0 | [6] 0 | [7] 0 | [8] 0 | [9] 0 | [10] 0

CC(Sc1nc2c(cnn2-c2cccc(Cl)c2)c(=O)[nH]1)C(N)=O (stereo not given) (10 µM)
inactive: [1] 0 | [2] 0 | [3] 0 | [4] 0 | [5] 0 | [6] 0 | [7] 0 | [8] 0 | [9] 0 | [10] 0

N#C/C(=C\c1ccc(O)c(O)c1)C(=O)O [Tyrphostin AG30] (10 µM)
inactive: [1] 0 | [2] 0 | [3] 0 | [4] 0 | [5] 0 | [6] 0 | [7] 0 | [8] 0 | [9] 0 | [10] 0

C[C@@H](Nc1ncnc2[nH]c(-c3ccc(O)cc3)cc12)c1ccccc1 (2.5 µM)
inactive: [1] 0 | [2] 0 | [3] 0 | [4] 0 | [5] 0 | [6] 0 | [7] 0 | [8] 0 | [9] 0 | [10] 0

C[C@H]1O[C@@H](O[C@H]2CC[C@@]3(C)[C@@H](CC[C@]4(C)[C@@H]3C=C[C@]35OC[C@@]6(CCC(C)(C)C[C@H]63)[C@H](O)C[C@]54C)[C@]2(C)CO)[C@H](O)[C@@H](O[C@@H]2O[C@H](CO)[C@@H](O)[C@H](O)[C@H]2O)[C@H]1O [Saikosaponin D] (2.5 µM)
inactive: [1] 0 | [2] 0 | [3] 0 | [4] 0 | [5] 0 | [6] 0 | [7] 0 | [8] 0 | [9] 0 | [10] 0

Cc1c(C(=O)Nc2ccc(Oc3ccnc4[nH]cc(-c5ccccc5)c34)c(F)c2)c(=O)n(-c2ccc(F)cc2)n1C (10 µM)
inactive: [1] 0 | [2] 0 | [3] 0 | [4] 0 | [5] 0 | [6] 0 | [7] 0 | [8] 0 | [9] 0 | [10] 0

Cc1cc(C)cc(NC(N)=Nc2ccccc2C(F)(F)F)c1 (10 µM)
inactive: [1] 0 | [2] 0 | [3] 0 | [4] 0 | [5] 0 | [6] 0 | [7] 0 | [8] 0 | [9] 0 | [10] 0

Cc1ccc(-n2nc(C(C)(C)C)cc2NC(=O)Nc2ccc(OCCN3CCOCC3)cc2)cc1 (10 µM)
inactive: [1] 0 | [2] 0 | [3] 0 | [4] 0 | [5] 0 | [6] 0 | [7] 0 | [8] 0 | [9] 0 | [10] 0

Cc1cc(-n2c(=O)ccc3c[nH]c4nccc-4c32)ccc1F (10 µM)
inactive: [1] 0 | [2] 0 | [3] 0 | [4] 0 | [5] 0 | [6] 0 | [7] 0 | [8] 0 | [9] 0 | [10] 0

O=c1cc(-c2ccccc2)oc2cc(O[C@@H]3O[C@H](CO[C@@H]4O[C@H](CO)[C@@H](O)[C@H](O)[C@H]4O)[C@@H](O)[C@H](O)[C@H]3O)c(O)c(O)c12 [Oroxin B] (10 µM)
inactive: [1] 0 | [2] 0 | [3] 0 | [4] 0 | [5] 0 | [6] 0 | [7] 0 | [8] 0 | [9] 0 | [10] 0

Nc1nc2c(nc(Br)n2[C@@H]2O[C@@H]3COP(=O)(O)O[C@H]3[C@H]2O)c(=O)[nH]1 [8-Bromo-cGMP (sodium)] (10 µM)
inactive: [1] 0 | [2] 0 | [3] 0 | [4] 0 | [5] 0 | [6] 0 | [7] 0 | [8] 0 | [9] 0 | [10] 0

C=CC(=O)Nc1ccc(C(=O)Nc2[nH]nc3c2CN(C(=O)N[C@H](CN(C)C)c2ccccc2)C3(C)C)cc1 (10 µM)
inactive: [1] 0 | [2] 0 | [3] 0 | [4] 0 | [5] 0 | [6] 0 | [7] 0 | [8] 0 | [9] 0 | [10] 0

O=C(O)c1ccc(/C=C/S(=O)(=O)Cc2ccc(Cl)cc2)cc1 [Recilisib] (10 µM)
inactive: [1] 0 | [2] 0 | [3] 0 | [4] 0 | [5] 0 | [6] 0 | [7] 0 | [8] 0 | [9] 0 | [10] 0

NC[C@@](O)(c1ccc(Cl)cc1)c1ccc(-c2cn[nH]c2)cc1 (10 µM)
inactive: [1] 0 | [2] 0 | [3] 0 | [4] 0 | [5] 0 | [6] 0 | [7] 0 | [8] 0 | [9] 0 | [10] 0

Cc1cc([C@@H](C)Nc2ccccc2C(=O)O)c2nc(N3CCOCC3)cc(=O)n2c1 (10 µM)
inactive: [1] 0 | [2] 0 | [3] 0 | [4] 0 | [5] 0 | [6] 0 | [7] 0 | [8] 0 | [9] 0 | [10] 0

Cc1nc[nH]c1CN1CCN(C(=O)N[C@@H](CC(C)C)C(=O)O)[C@@H](Cc2ccccc2)C1=O (10 µM)
inactive: [1] 0 | [2] 0 | [3] 0 | [4] 0 | [5] 0 | [6] 0 | [7] 0 | [8] 0 | [9] 0 | [10] 0

O=C1Nc2ccc(I)cc2/C1=C/c1cc(Br)c(O)c(Br)c1 (10 µM)
inactive: [1] 0 | [2] 0 | [3] 0 | [4] 0 | [5] 0 | [6] 0 | [7] 0 | [8] 0 | [9] 0 | [10] 0

COc1cc2c(cc1Nc1ncc(C(N)=O)c(Nc3c(F)cccc3C(F)(F)F)n1)CN(C)CC2 (2.5 µM)
inactive: [1] 0 | [2] 0 | [3] 0 | [4] 0 | [5] 0 | [6] 0 | [7] 0 | [8] 0 | [9] 0 | [10] 0

Brc1ccc(CSc2nc3ccccc3o2)cc1 [BMP signaling agonist sb4] (10 µM)
inactive: [1] 0 | [2] 0 | [3] 0 | [4] 0 | [5] 0 | [6] 0 | [7] 0 | [8] 0 | [9] 0 | [10] 0

Nc1nc(N)c2nc(-c3cccc(O)c3)c(-c3cccc(O)c3)nc2n1 (10 µM)
inactive: [1] 0 | [2] 0 | [3] 0 | [4] 0 | [5] 0 | [6] 0 | [7] 0 | [8] 0 | [9] 0 | [10] 0

O=C(Nc1cccnc1)c1cc(-c2ccnc(F)c2)ccc1OCc1ccccc1 (10 µM)
inactive: [1] 0 | [2] 0 | [3] 0 | [4] 0 | [5] 0 | [6] 0 | [7] 0 | [8] 0 | [9] 0 | [10] 0

O=C(O)c1cc(N(Cc2ccccc2O)Cc2cc(O)ccc2O)ccc1O [Lavendustin A] (10 µM)
inactive: [1] 0 | [2] 0 | [3] 0 | [4] 0 | [5] 0 | [6] 0 | [7] 0 | [8] 0 | [9] 0 | [10] 0

Cc1nn(C)cc1-c1nc2c(N3CCN(Cc4ccc(Cl)cc4)CC3)c(Cl)cnc2[nH]1 (10 µM)
inactive: [1] 0 | [2] 0 | [3] 0 | [4] 0 | [5] 0 | [6] 0 | [7] 0 | [8] 0 | [9] 0 | [10] 0

c1ccc(Cn2c(-c3ccc(OC[C@H](C4CCNCC4)n4c(-c5ccccc5)nc5ccccc54)cc3)nc3ccccc32)cc1 [Deltarasin] (2.5 µM)
inactive: [1] 0 | [2] 0 | [3] 0 | [4] 0 | [5] 0 | [6] 0 | [7] 0 | [8] 0 | [9] 0 | [10] 0

O=C(ON=C1c2ccccc2-c2nc3ccccc3nc21)c1ccco1 (2.5 µM)
inactive: [1] 0 | [2] 0 | [3] 0 | [4] 0 | [5] 0 | [6] 0 | [7] 0 | [8] 0 | [9] 0 | [10] 0

Ordered by heavy-atom count (low to high): 3 of the compounds above.
O=C(O)c1cc(N(Cc2ccccc2O)Cc2cc(O)ccc2O)ccc1O [Lavendustin A] (10 µM)
inactive: [1] 0 | [2] 0 | [3] 0 | [4] 0 | [5] 0 | [6] 0 | [7] 0 | [8] 0 | [9] 0 | [10] 0

Cc1nn(C)cc1-c1nc2c(N3CCN(Cc4ccc(Cl)cc4)CC3)c(Cl)cnc2[nH]1 (10 µM)
inactive: [1] 0 | [2] 0 | [3] 0 | [4] 0 | [5] 0 | [6] 0 | [7] 0 | [8] 0 | [9] 0 | [10] 0

c1ccc(Cn2c(-c3ccc(OC[C@H](C4CCNCC4)n4c(-c5ccccc5)nc5ccccc54)cc3)nc3ccccc32)cc1 [Deltarasin] (2.5 µM)
inactive: [1] 0 | [2] 0 | [3] 0 | [4] 0 | [5] 0 | [6] 0 | [7] 0 | [8] 0 | [9] 0 | [10] 0
